For some of these results: The name of at least one read-out is uncertain. Some entries repeat one wording, which the source may state once for all of them. Some entries share one result that the patent states for a list of compounds. Bridge positions count the residues as written; N and C are the ends. Square brackets hold non-standard residues; d marks the D form. Peptide text beside a SMILES is read from it. NMeF = CN[C@@H](Cc1ccccc1)C(=O)O; dOrn = NCCC[C@@H](N)C(=O)O
What was measured:
Kunming male mice [1] = test: Blood-brain barrier permeability assay (naloxone iodide/naloxone antagonism), oral compound; type: in vivo; details: oral injection of compound, naloxone iodide i.c.v./i.p.
Kunming male mice [2] = test: Blood-brain barrier permeability assay (naloxone iodide/naloxone antagonism), subcutaneous compound; type: in vivo; details: subcutaneous injection of compound, naloxone iodide i.c.v./s.c.
Kunming male mice [3] = test: Photothermal tail flick experiment, subcutaneous injection; type: in vivo
Protocol: Two administration methods were used: peripheral subcutaneous administration and oral administration. Subsequently, the analgesic activity of the drug was studied using an acute pain model of photothermal tail flick in mice.
Subcutaneous administration on the back was chosen for subcutaneous administration (s.c.). A sterile 1 mL syringe was used and the drug with the volume of 0.1 mL/10 g was injected for administration. The back skin was grasped with the right hand, the needle was tilted in, and the drug was injected subcutaneously into the mouse's back. After the needle was inserted, shook it left and right, and observe to confirm that the needle had indeed entered the subcutaneous area to prevent the needle from puncturing the skin and leaking the drug.
The photothermal tail flick experiment is based on the experimental method summarized by D'Amour and Smith to optimize the experimental parameters. The experiment selected Kunming male mice with body weigh 21±2 g, and ambient temperature controlled at 22±2° C. The experimental mice were allowed to drink water freely and were moved from the breeding room to the experimental area for adaptation for 30 minutes before starting the experiment. Then the mice were grab with the right hand and the tail hang freely. Then the mice's tail were placed on a radiation light source, 2-3 mm away from the mice tail. The intensity of radiation heat was adjusted to the tail flick time of mice being 3-5 s, which is the basic pain threshold of photothermal tail flick. The irradiation time of the mice tail should not exceed 10 s to prevent scalding of the mice tail, which was the maximum latency for photothermal tail flick. After administration, time points of 10, 20, 30, 45, 60, 90, 120, 180, 240, 300, 360, and 420 minutes were selected to measure the tail flick latency of mice after administration.
The analgesic effect of drugs was generally evaluated using the maximum analgesic effect MPE (%), MPE (%)=100×[(pain threshold after administration−basic pain threshold)/(10 seconds−basic pain threshold)]. 50% effective dose (ED50) refers to the corresponding drug dose that causes a 50% effect. ED50 and 95% confidence interval were calculated using MPE (%) and the drug concentration that achieves the maximum analgesic effect MPE (%) by the statistical software GraphPad Prism 5.0. The difference in analgesic effects was statistically analyzed using one-way ANOVA (Dunnett test), *P<0.05, **P<0.01, and ***P<0.001 indicated significance of the difference between the group with only drug injected and the saline group.

The chains behind the UniProt entries cited, without tags or fusion partners. Where a name states a change or a piece, a line headed by the entry shows the natural chain unless it says otherwise.
UniProt P41145: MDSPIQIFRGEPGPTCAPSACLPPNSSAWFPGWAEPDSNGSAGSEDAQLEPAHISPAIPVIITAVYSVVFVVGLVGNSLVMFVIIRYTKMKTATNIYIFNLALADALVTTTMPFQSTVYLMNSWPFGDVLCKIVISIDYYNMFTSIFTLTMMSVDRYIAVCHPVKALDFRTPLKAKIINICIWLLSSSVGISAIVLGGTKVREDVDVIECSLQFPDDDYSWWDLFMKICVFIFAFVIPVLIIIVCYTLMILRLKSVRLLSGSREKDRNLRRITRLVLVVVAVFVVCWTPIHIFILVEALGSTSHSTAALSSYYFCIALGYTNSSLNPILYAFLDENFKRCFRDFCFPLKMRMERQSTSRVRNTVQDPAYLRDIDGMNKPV
UniProt P41143, whole entry: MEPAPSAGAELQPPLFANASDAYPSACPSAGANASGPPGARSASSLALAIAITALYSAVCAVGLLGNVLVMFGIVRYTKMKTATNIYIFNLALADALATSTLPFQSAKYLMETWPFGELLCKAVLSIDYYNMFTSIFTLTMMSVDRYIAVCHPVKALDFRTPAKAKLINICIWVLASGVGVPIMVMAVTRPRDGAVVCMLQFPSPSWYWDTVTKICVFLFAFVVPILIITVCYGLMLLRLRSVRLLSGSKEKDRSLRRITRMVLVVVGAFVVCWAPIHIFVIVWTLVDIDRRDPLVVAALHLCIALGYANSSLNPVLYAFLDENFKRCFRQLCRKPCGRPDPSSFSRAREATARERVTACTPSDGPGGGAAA
UniProt Q9Y5X5: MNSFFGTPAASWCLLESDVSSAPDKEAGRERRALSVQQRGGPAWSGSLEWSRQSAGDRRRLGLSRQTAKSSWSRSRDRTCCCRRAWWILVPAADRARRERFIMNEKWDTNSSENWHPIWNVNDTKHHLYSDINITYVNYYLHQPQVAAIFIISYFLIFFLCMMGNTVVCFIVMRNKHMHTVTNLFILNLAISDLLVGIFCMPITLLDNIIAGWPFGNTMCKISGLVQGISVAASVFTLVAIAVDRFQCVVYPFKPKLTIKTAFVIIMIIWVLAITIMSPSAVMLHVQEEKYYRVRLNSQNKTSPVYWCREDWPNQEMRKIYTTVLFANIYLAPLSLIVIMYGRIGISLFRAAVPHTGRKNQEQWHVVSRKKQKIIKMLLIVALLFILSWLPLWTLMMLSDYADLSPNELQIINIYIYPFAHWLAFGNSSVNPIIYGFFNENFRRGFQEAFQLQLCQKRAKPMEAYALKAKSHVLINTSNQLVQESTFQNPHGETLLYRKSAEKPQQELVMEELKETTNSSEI
UniProt Q9GZQ6: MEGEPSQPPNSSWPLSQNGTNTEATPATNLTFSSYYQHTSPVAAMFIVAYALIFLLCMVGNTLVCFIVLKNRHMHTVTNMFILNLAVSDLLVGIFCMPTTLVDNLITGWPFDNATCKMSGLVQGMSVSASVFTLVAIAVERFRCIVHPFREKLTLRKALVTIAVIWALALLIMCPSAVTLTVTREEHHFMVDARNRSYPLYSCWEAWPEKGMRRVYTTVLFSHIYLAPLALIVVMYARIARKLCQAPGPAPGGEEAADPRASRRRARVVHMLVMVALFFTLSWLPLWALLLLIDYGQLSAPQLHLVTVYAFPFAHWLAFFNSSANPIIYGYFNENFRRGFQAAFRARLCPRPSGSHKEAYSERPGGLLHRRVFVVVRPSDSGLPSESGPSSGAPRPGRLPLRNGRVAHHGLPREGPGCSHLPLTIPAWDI
UniProt P35372, whole entry: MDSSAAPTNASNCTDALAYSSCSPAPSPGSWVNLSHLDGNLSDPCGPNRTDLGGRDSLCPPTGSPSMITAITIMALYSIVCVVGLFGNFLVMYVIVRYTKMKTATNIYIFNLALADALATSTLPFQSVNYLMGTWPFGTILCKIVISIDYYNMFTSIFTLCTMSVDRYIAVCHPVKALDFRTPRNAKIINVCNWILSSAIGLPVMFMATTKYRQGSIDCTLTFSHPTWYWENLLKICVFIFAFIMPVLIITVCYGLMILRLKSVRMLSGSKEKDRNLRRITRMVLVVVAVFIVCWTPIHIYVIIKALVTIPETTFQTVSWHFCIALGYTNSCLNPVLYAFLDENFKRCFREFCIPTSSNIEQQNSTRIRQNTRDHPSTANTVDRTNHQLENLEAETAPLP

Kappa-opioid receptor = target: T1, Kappa-opioid receptor (Homo sapiens, UniProt P41145); test: cAMP functional experiment, Kappa-opioid receptor (forskolin-induced cAMP accumulation); type: cell-based; details: HEK293 cell line stably expressing the receptor
T1 construct: expressed in transfected cells; host or cells: HEK293
Protocol: (§1) The agonistic activity of the cyclopeptide molecule of the present invention against Mu-opioid receptor, Delta-opioid receptor, Kappa-opioid receptor, NPFF1 receptor and NPFF2 receptor was evaluated by detecting the regulation of the cyclopeptide molecule of the present invention on the intracellular accumulation of cyclic adenosine monophosphate (cAMP) induced by Forskolin in HEK293 cells stably expressing these five receptors. The experimental method was: the cells were seeded in 24 well plates with 120000 cells per well, and were cultured for more than 20 hours. At the beginning of the experiment, the culture medium in the culture dish was suck out, and then 500 μL of preheated serum-free medium containing 1 mM of IBMX was added, the mixture was incubated at 37° C. for 10 minutes. Then each 10 μL of the drug to be tested and 10 μM of forskolin (final concentration) were added to each well. The mixture was incubated at 37° C. for 30 minutes. After incubation, all the liquid was suck out from the culture dish, 500 μL of 0.2 N hydrochloric acid was added to each well, the mixture was incubated at room temperature for 30 minutes to promote cell lysis. After lysis was complete, NaOH was added to neutralize the hydrochloric acid solution used for lysis. Then all the liquid was suck out from the culture dish into centrifuge tubes, the liquid was centrifuged at 12000 rpm for 2 minutes. 50 μL was taken to a clean centrifuge tube, 100 μL of 60 μg/μL PKA was added, and 100 μL of TE cAMP buffer was added to the blank control group (B). Another 50 μL of 0.5 μ Ci[^3H]cAMP was added to each of the above centrifuge tubes, the mixture was quickly mixed and incubated at 4° C. for more than 2 hours. After incubation, another 100 μL of activated carbon suspension was added to each tube, the mixture was vortex agitated evenly, placed in an ice bath for 1 minute, centrifuged at 5000 rpm for 4 minutes. 200 μL of supernatant after centrifugation in each tube was suck out to a 24 well plate, with an additional 700 μL of scintillator liquid added per well, then the 24 well plate was sealed with adhesive film, placed for 3 hours, then placed on the scintillation instrument for measurement.
(§2) The inhibitory effect of cAMP was represented by the percentage (% control) of drug inhibition of intracellular cAMP accumulation induced by Forskolin, wherein % control=(cAMP content when treated with Forskolin−cAMP content when Forskolin co-treated with the test drug)/(cAMP content when treated with Forskolin−cAMP content when treated with solvent). The related % control data was represented by mean±S.E.M. The dose-effect relationship of the drug was statistically analyzed using a nonlinear regression model, and the IC50 values of the multi-target cyclopeptide molecule on inhibition of Forskolin induced intracellular cAMP accumulation were calculated using the statistical software GraphPad Prism version 5.0.

Delta-opioid receptor = target: T2, Delta-opioid receptor (Homo sapiens, UniProt P41143); test: cAMP functional experiment, Delta-opioid receptor (forskolin-induced cAMP accumulation); type: cell-based; details: HEK293 cell line stably expressing the receptor
T2 construct: expressed in transfected cells; host or cells: HEK293
Protocol: as §1, §2

NPFF2 receptor = target: T3, NPFF2 receptor (Homo sapiens, UniProt Q9Y5X5); test: cAMP functional experiment, NPFF2 receptor (forskolin-induced cAMP accumulation); type: cell-based; details: HEK293 cell line stably expressing the receptor
T3 construct: expressed in transfected cells; host or cells: HEK293
Protocol: as §1, §2

NPFF1 receptor = target: T4, NPFF1 receptor (Homo sapiens, UniProt Q9GZQ6); test: cAMP functional experiment, NPFF1 receptor (forskolin-induced cAMP accumulation); type: cell-based; details: HEK293 cell line stably expressing the receptor
T4 construct: expressed in transfected cells; host or cells: HEK293
Protocol: as §1, §2

Mu-opioid receptor = target: T5, Mu-opioid receptor (Homo sapiens, UniProt P35372); test: cAMP functional experiment, Mu-opioid receptor (forskolin-induced cAMP accumulation); type: cell-based; details: HEK293 cell line stably expressing the receptor
T5 construct: expressed in transfected cells; host or cells: HEK293
Protocol: as §1, §2

With CN1C(=O)CNC(=O)[C@H](NC(=O)[C@@H](N)Cc2ccc(O)cc2)CCCNC(=O)CC[C@@H](C(=O)N2CCC[C@H]2C(=O)N[C@@H](CCC(N)=O)C(=O)N[C@@H](CCCNC(=N)N)C(=O)N[C@@H](Cc2ccccc2)C(N)=O)NC(=O)[C@@H]1Cc1ccccc1 [Compound 11, Tyr-c^[2,5][D-Orn-Gly-NMe-Phe-Glu]-Pro-Gln-Arg-Phe-NH2] (H-Y[dOrn]G[NMeF]EPQRF-NH2; lactam 2-5) the “Blood-brain barrier permeability” value (Kunming male mice [1]) was “cannot penetrate the blood-brain barrier”, the Blood-brain barrier permeability (Kunming male mice [2]) was “Not permeable” and the Blood-brain barrier permeability (Kunming male mice [2]; listed as compound 11) was “neither compounds 1-14 could penetrate the blood-brain barrier”. The “subcutaneous analgesic ED50, fold lower than parent molecule DN-9” value (Kunming male mice [3]) was “at least 10000 times”, the “agonistic activity for Kappa-opioid receptor” value (Kappa-opioid receptor) was “dose-dependently inhibited cAMP accumulation induced by forskolin” and the “agonistic activity for Delta-opioid receptor” value (Delta-opioid receptor) was “dose-dependently inhibited cAMP accumulation induced by forskolin”. For the same compound, the “agonist activity for NPFF2 receptor” value (NPFF2 receptor) was “dose-dependently inhibited cAMP accumulation induced by forskolin”, the “agonist activity for NPFF1 receptor” value (NPFF1 receptor) was “dose-dependently inhibited cAMP accumulation induced by forskolin” and the “agonistic activity for Mu-opioid receptor” value (Mu-opioid receptor) was “dose-dependently inhibited cAMP accumulation induced by forskolin”.
CN1C(=O)CNC(=O)[C@H](NC(=O)[C@@H](N)Cc2ccc(O)cc2)CCCCNC(=O)C[C@@H](C(=O)NCC(=O)N[C@@H](CCC(N)=O)C(=O)N[C@@H](CCCNC(=N)N)C(=O)N[C@@H](Cc2ccccc2)C(N)=O)NC(=O)[C@@H]1Cc1ccccc1 [Compound 12, Tyr-c^[2,5][D-Lys-Gly-NMe-Phe-Asp]-Gly-Gln-Arg-Phe-NH2] (H-Y[dK]G[NMeF]DGQRF-NH2; lactam 2-5) was tested, and the Blood-brain barrier permeability (Kunming male mice [2]) was “Not permeable”, the Blood-brain barrier permeability (Kunming male mice [2]; listed as compound 12) was “neither compounds 1-14 could penetrate the blood-brain barrier” and the “subcutaneous analgesic ED50, fold lower than parent molecule DN-9” value (Kunming male mice [3]) was “at least 10000 times”. For the same compound, the “agonistic activity for Kappa-opioid receptor” value (Kappa-opioid receptor) was “dose-dependently inhibited cAMP accumulation induced by forskolin”, the “agonistic activity for Delta-opioid receptor” value (Delta-opioid receptor) was “dose-dependently inhibited cAMP accumulation induced by forskolin” and the “agonist activity for NPFF2 receptor” value (NPFF2 receptor) was “dose-dependently inhibited cAMP accumulation induced by forskolin”. For the same compound, the “agonist activity for NPFF1 receptor” value (NPFF1 receptor) was “dose-dependently inhibited cAMP accumulation induced by forskolin” and the “agonistic activity for Mu-opioid receptor” value (Mu-opioid receptor) was “dose-dependently inhibited cAMP accumulation induced by forskolin”.
In the case of CN1C(=O)CNC(=O)[C@H](NC(=O)[C@@H](N)Cc2ccc(O)cc2)CCCCNC(=O)C[C@@H](C(=O)N2CCC[C@H]2C(=O)N[C@@H](CCC(N)=O)C(=O)N[C@@H](CCCNC(=N)N)C(=O)N[C@@H](Cc2ccccc2)C(N)=O)NC(=O)[C@@H]1Cc1ccccc1 [Compound 1, Tyr-c[D-Lys-Gly-NMe-Phe-Asp]-Pro-Gln-Arg-Phe-NH2] (H-Y[dK]G[NMeF]DPQRF-NH2; lactam 2-5), the “Blood-brain barrier permeability” value (Kunming male mice [1]) is reported as “cannot penetrate the blood-brain barrier”, the Blood-brain barrier permeability (Kunming male mice [2]) is reported as “Not permeable” and the Blood-brain barrier permeability (Kunming male mice [2]; listed as compound 1) is reported as “neither compounds 1-14 could penetrate the blood-brain barrier”. The “agonistic activity for Kappa-opioid receptor” value (Kappa-opioid receptor) was “dose-dependently inhibited cAMP accumulation induced by forskolin”, the “agonistic activity for Delta-opioid receptor” value (Delta-opioid receptor) was “dose-dependently inhibited cAMP accumulation induced by forskolin” and the “agonist activity for NPFF2 receptor” value (NPFF2 receptor) was “dose-dependently inhibited cAMP accumulation induced by forskolin”. For the same compound, the “agonist activity for NPFF1 receptor” value (NPFF1 receptor) was “dose-dependently inhibited cAMP accumulation induced by forskolin” and the “agonistic activity for Mu-opioid receptor” value (Mu-opioid receptor) was “dose-dependently inhibited cAMP accumulation induced by forskolin”.
